Laboratory results reported in paper doi:10.1101/129551.
These are yes or no findings as the source states them, for the method shown. In cells and extracts the contact can be indirect. Some results given as binding are weak or reduced against the parent protein; the word gives no strength.

Sequences of proteins named here, by UniProt entry; tags and fusion partners are left off. Residues count along the entry.
UniProt P63044: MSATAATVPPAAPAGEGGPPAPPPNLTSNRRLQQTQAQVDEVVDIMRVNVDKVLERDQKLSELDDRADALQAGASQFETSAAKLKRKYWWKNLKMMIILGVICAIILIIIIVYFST
UniProt P05067, residues 672-713: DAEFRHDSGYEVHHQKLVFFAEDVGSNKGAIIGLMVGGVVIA
UniProt Q62277: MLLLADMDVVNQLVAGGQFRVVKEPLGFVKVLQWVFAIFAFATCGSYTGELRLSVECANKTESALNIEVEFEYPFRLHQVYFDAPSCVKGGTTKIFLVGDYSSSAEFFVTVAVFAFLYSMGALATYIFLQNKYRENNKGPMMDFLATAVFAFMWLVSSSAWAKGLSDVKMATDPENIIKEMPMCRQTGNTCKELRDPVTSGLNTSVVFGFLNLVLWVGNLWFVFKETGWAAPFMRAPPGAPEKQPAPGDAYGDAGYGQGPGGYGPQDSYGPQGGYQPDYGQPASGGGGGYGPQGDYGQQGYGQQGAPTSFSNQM
UniProt Q8BGN8: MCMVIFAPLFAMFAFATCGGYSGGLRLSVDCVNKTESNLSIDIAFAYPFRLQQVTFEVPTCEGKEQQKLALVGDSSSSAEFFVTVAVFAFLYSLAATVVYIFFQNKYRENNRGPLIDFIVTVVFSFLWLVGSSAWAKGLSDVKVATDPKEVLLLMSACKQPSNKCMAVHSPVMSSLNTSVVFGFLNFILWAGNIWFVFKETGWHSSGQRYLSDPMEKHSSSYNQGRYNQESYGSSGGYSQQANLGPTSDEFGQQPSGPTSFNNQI

Tests used:
[1] = target: synaptobrevin 2 (VAMP2), endogenous mouse (mouse (endogenous in cortical neurons and brain synaptosomes)) (UniProt P63044); assay: co-IP
[2] = target: β-amyloid peptide Aβ42 (UniProt P05067); assay: pull-down
[3] = target: synaptophysin (SYP), endogenous mouse (mouse (endogenous in cortical neurons and brain synaptosomes)) (UniProt Q62277); assay: co-IP

| Substance | binding [1] | binding [2] | binding [3] |
| --- | --- | --- | --- |
| synaptoporin (SYNPR), endogenous mouse (from UniProt Q8BGN8 1-265) | binds | no binding | – |
| synaptophysin (SYP), endogenous mouse (from UniProt Q62277 1-314) | – | binds | – |
| synaptobrevin 2 (VAMP2), endogenous mouse (from UniProt P63044 1-116) | – | – | binds |
